PubChem BioAssay AID1347076 (National Center for Advancing Translational Sciences (NCATS), 2019)
Screen size: about 400,000 compounds; about 13,000 (3.2%) were called active. This list was built around the results that the source calls inconclusive (neither active nor inactive); the mix of calls is not that of the screen. The call rests on the fitted dose curve; in most records, active means well fitted cell-killing curve with a large enough effect; inconclusive means small, poorly fitted or top-dose-only effect, or effect the other way; inactive means flat fitted curve, though single readings scatter. Potencies beside an inconclusive call are fits to weak or partial responses and may not hold up.

Experiment: qHTS assay for MDR1-selective chemotherapeutics: Primary screen using the drug-selected MDR subline cells KB-V1; further: nearly all actives have a fitted effect of over 60% in size
Settings: KB-V1 MDR cells viability, CellTiter-Glo, 72 h; activity change, negative = cytotoxicity: at 46.1 µM (top of the series)
Summary of the method: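 Luminescent ATP read-out (CellTiter-Glo, 10 min) measures survival of drug-selected KB-V1 MDR cells after 72 h, 37 degrees C compound exposure. Medium: phenol-red-free DMEM, 10% FBS. Values from fitted concentration-response curves.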
On the % scale 0 is the no-effect control and ±100 the full control effect; potency means the concentration at half of the fitted maximal effect.

Row | SMILES | activity change, negative = cytotoxicity | Potency
1 | COC(=O)[C@]12CCCCC=C1N(Cc1cccc3ccccc13)C(=O)[C@H](CC(=O)N1CCN(C(=O)c3ccco3)CC1)C2 | inactive: -0.0416% | –
2 | CCOC(=O)N/N=C/c1c(C)nn(-c2cccc(C(F)(F)F)c2)c1Cl | – | active: 2.59 µM
3 | CC(=O)Nc1ccc(S(=O)(=O)NC2(C(F)(F)F)C(=O)Nc3c2c(=O)[nH]c(=O)n3-c2cccc(Cl)c2)cc1 (centres undefined) | inactive: 15.4% | –
4 | COc1ccc2cc3cc(C(=O)NCCN4CCc5ccccc5C4)sc3nc2c1 | – | inconclusive: 18.4 µM [cytotoxic, partial curve, poor fit]
5 | CCOC(=O)c1cnc2cc(C(F)(F)F)ccc2c1Nc1ccc(F)cc1F | inactive: -24.3% | –
6 | O=C(CSc1nnc(Cn2cnc3ccccc32)o1)c1ccccc1 | – | inconclusive: 29.1 µM [cytotoxic, single point]
7 | O=C(Cn1cnc2c(nnn2Cc2ccc(F)cc2)c1=O)Nc1ccc2c(c1)OCCO2 | inactive: 8.11% | –
8 | COc1ccc(CN2C(=O)CSCC2(C)C(=O)Nc2c(C)cccc2C)cc1 (centres undefined) | – | inconclusive: 9.2 µM [cytotoxic, partial curve, poor fit]
9 | CCOC(=O)C(=O)Nc1ccc(S(=O)(=O)Nc2nccs2)cc1 | – | inconclusive: 23.1 µM [rising, single point]
10 | COc1cc(OC)cc(C(=O)NC(=S)NNC(=O)c2cnccn2)c1 | – | inconclusive: 1.84 µM [cytotoxic, full curve]
11 | CC1CCCCN1C(=O)CSc1ccc(-c2ccc(F)cc2)nn1 (centres undefined) | – | active: 11.6 µM
12 | CCN(CC)C(=O)C1=C(C)N(Cc2ccc(F)cc2)C(=O)C(CC(=O)NCCCCc2ccccc2)C1 (centres undefined) | – | inconclusive: 10.3 µM [cytotoxic, partial curve, poor fit]
13 | CCOc1ccc(CCNC(=O)c2ccc(OCc3c(C)noc3C)cc2)cc1OCC | – | inconclusive: 23.1 µM [cytotoxic, single point]
14 | COc1ccc(C(=O)NC(=S)N(CCC(C)C)c2c(N)n(Cc3ccccc3)c(=O)[nH]c2=O)cc1 | – | inconclusive: 32.6 µM [rising, single point]
15 | CC(C)C(NC(=O)CCNC(=O)c1ccc(C(C)(C)C)cc1)c1nc2ccccc2[nH]1 (centres undefined) | inactive: 9.03% | –
16 | O=C1[C@H]2[C@@H](c3ccc(Cl)cc3)N3C(=O)N(c4cccc(Cl)c4)C(=O)[C@@]3(Cc3ccccc3)[C@H]2C(=O)N1C1CCCCC1 | inactive: 1.8% | –
17 | CCOC(=O)C1=C(C)NC2=C(C1c1ccc([N+](=O)[O-])cc1)S(=O)(=O)c1ccccc12 (centres undefined) | – | inconclusive: 29.1 µM [cytotoxic, single point]
18 | COc1ccc(-c2cc(C(=O)Nc3cc(S(=O)(=O)N4CCOCC4)ccc3N3CCOCC3)c3ccccc3n2)cc1 | inactive: -24.7% | –
19 | O=C(CSc1nc(-c2ccccc2)nn1C(=O)c1ccccc1)Nc1cccc([N+](=O)[O-])c1 | – | active: 20.6 µM
20 | Cc1ccc(C(=O)N/C(=C/c2ccco2)C(=O)NC2CCS(=O)(=O)C2)cc1 (centres undefined) | – | inconclusive: 23.1 µM [rising, single point]
21 | COc1ccc(CCn2c3c(c(=O)[nH]c2=O)C(NC(=O)c2ccc(Cl)cc2)(C(F)(F)F)C(=O)N3)cc1OC (centres undefined) | – | inconclusive: 5.17 µM [rising, partial curve, poor fit]
22 | N#CC1C(=O)NC(=O)C(C#N)C12CCCC2 (centres undefined) | inactive: 7.01% | –

Row | SMILES | activity change, negative = cytotoxicity | Potency
23 | Cc1ccc2oc(-c3cccc(N)c3)nc2c1 | – | inconclusive: 16.4 µM [cytotoxic, single point]
24 | COc1cccc(C2=CC(c3cc(OC)ccc3OC)n3nnnc3N2)c1 (centres undefined) | – | active: 16.4 µM
25 | COc1cccc(NC(=O)CN2C(=O)c3cccc4cccc2c34)c1 | – | inconclusive: 4.11 µM [cytotoxic, full curve]
26 | Cc1ccccc1CN1CCN(Cc2ccccc2C(F)(F)F)CC1 | inactive: 1.82% | –
27 | COc1ccc2[nH]c3c(c2c1)CCNC3C1CC=C(C)CC1 (centres undefined) | – | inconclusive: 23.1 µM [cytotoxic, single point]
28 | C=C(C)c1ccc(C(C)(C)NC(=O)NCc2ccco2)cc1 | – | inconclusive: 23.1 µM [cytotoxic, single point]
29 | Cc1ccc(C)c(NC(=S)NNC(=O)c2csc3c2CCC(C)C3)c1 (centres undefined) | – | inconclusive: 23.1 µM [cytotoxic, partial curve, poor fit]
30 | O=C(Nc1nonc1-c1ccc(Cl)cc1)c1ccccc1 | – | inconclusive: 29.1 µM [cytotoxic, single point]
31 | CCOC(=O)CCCCC(=O)c1[nH]c(=O)[nH]c1CSc1nnc2c3ccccc3n(C(C)C)c2n1 | – | active: 14.6 µM
32 | COCC(C)NC(=S)NC(=O)c1cc(S(=O)(=O)N2CCOCC2)ccc1C (centres undefined) | – | inconclusive: 20.6 µM [cytotoxic, single point]
33 | COc1cccc(CNC(=O)CN2CCC(c3nc4ccc(C)cc4[nH]3)CC2)c1 | inactive: -25.5% | –
34 | CCN(c1cccc(C)c1)S(=O)(=O)c1cc(Br)cc2c1N(C(C)=O)C(C)C2 (centres undefined) | inactive: 9.36% | –
35 | CCOC(=O)c1c(NC(=O)CSc2nncs2)sc(C)c1C | inactive: 8.74% | –
36 | CCCN1CCC(C(=O)NC(c2ccc(Cl)cc2)c2ccsc2)CC1 (centres undefined) | – | inconclusive: 32.6 µM [cytotoxic, partial curve, poor fit]
37 | COc1ccc(CCN2C(=O)c3ccncc3C2=O)cc1OC | – | inconclusive: 20.6 µM [rising, partial curve]
38 | Cc1nn2c3cc(N4CCOCC4)ccc3nc2c2ccccc12 | – | inconclusive: 2.06 µM [cytotoxic, full curve]
39 | O=C(NCc1cccs1)C1CC(c2ccc(Cl)cc2)=NO1 (centres undefined) | – | inconclusive: 18.4 µM [cytotoxic, partial curve]
40 | O=C1c2ccccc2C(=O)N1CC(=O)N1c2ccccc2Sc2ccc(C(F)(F)F)cc21 | – | active: 18.4 µM
41 | CCc1ccc2c(c1)c1nc(C)sc1n2CC(=O)OC | inactive: 18.6% | –
42 | COc1ccc2c(c1)c1c(c(=O)n(-c3ccccc3C)c(=O)n1Cc1cccc(C(F)(F)F)c1)n2C | inactive: -21.9% | –
43 | O=C(CCCc1ccccc1)NCCN1CCOCC1 | inconclusive: -0.794% | –
44 | Cc1ccc(S(=O)(=O)NC(C)C(=O)Nc2cccc([N+](=O)[O-])c2)cc1 (centres undefined) | – | inconclusive: 18.4 µM [cytotoxic, single point]

Ordered by formula weight (rising): part of the list above.
Row | SMILES | activity change, negative = cytotoxicity | Potency
23 | Cc1ccc2oc(-c3cccc(N)c3)nc2c1 | – | inconclusive: 16.4 µM [cytotoxic, single point]
35 | CCOC(=O)c1c(NC(=O)CSc2nncs2)sc(C)c1C | inactive: 8.74% | –
42 | COc1ccc2c(c1)c1c(c(=O)n(-c3ccccc3C)c(=O)n1Cc1cccc(C(F)(F)F)c1)n2C | inactive: -21.9% | –
